# Test results from PubChem BioAssay (EPA / NIEHS).
# Protein sequences, listed by entry. Tags and fused reporters are not part of them. Lines headed by an entry give the natural chain unless they say otherwise; changes in a name come on top.
# UniProt P04637, whole entry, looked up: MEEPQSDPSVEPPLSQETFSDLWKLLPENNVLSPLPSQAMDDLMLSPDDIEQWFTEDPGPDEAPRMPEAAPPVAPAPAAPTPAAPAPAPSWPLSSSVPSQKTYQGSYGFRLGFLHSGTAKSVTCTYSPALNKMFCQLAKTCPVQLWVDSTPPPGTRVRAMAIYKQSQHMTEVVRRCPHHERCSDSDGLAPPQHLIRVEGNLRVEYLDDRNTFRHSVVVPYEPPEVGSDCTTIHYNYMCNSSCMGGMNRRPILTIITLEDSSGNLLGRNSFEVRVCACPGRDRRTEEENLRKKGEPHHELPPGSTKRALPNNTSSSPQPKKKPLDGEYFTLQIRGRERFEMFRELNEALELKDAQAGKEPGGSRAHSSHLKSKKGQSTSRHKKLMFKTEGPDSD
# UniProt P04150: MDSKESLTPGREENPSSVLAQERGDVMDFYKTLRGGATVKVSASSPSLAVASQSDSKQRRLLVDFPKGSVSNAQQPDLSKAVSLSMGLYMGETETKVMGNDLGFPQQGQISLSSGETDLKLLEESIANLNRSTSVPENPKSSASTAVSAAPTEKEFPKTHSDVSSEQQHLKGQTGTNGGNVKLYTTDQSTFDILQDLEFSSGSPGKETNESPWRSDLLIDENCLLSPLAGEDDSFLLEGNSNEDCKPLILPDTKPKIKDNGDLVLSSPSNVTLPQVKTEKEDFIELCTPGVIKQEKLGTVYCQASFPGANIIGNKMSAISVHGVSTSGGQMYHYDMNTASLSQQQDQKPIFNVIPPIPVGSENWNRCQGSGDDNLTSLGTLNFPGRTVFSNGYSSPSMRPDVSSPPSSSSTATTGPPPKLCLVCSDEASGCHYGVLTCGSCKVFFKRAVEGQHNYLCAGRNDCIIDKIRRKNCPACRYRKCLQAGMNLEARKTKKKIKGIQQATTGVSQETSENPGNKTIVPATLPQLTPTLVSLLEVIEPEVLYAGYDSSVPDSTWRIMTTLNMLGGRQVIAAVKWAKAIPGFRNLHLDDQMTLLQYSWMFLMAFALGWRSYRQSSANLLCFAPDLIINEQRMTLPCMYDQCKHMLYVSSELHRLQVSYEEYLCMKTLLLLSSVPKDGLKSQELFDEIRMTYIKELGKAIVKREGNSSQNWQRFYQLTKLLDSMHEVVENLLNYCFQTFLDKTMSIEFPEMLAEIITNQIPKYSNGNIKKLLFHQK
# UniProt P55055, whole entry, looked up: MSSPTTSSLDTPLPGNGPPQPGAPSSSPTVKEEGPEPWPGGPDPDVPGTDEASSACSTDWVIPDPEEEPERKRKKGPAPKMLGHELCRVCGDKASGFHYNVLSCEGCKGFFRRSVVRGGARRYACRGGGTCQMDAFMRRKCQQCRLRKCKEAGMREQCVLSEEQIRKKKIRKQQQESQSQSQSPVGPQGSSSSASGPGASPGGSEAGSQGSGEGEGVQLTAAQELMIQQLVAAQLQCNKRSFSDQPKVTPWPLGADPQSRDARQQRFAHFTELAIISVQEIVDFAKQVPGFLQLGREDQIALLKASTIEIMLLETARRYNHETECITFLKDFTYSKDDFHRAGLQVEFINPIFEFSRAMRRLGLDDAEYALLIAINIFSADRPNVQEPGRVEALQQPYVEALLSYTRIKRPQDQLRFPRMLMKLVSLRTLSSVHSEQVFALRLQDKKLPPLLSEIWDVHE
# UniProt O75469: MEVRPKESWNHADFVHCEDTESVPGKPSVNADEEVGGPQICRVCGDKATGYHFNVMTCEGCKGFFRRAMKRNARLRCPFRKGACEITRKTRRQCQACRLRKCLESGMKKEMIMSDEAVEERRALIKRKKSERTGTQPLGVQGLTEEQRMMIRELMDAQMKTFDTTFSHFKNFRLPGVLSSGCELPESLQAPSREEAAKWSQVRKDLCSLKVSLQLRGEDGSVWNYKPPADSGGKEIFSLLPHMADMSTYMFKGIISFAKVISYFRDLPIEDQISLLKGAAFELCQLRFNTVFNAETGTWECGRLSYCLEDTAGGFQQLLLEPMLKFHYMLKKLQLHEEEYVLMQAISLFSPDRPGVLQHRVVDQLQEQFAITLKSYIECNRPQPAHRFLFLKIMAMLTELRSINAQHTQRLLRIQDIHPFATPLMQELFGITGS
# UniProt P37231: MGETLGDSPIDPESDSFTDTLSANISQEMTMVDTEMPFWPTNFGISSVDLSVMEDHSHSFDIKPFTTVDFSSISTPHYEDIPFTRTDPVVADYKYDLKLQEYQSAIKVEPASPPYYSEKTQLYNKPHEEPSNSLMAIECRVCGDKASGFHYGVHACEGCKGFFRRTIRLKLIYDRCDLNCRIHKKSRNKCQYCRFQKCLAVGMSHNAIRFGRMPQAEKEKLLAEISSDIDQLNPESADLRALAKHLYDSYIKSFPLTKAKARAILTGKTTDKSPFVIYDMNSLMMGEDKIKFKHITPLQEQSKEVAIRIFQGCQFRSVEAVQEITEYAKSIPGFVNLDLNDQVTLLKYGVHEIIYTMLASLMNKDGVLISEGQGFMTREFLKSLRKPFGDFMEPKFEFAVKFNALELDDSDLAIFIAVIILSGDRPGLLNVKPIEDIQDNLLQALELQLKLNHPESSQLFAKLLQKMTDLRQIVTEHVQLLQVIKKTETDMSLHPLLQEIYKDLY
# UniProt Q03181: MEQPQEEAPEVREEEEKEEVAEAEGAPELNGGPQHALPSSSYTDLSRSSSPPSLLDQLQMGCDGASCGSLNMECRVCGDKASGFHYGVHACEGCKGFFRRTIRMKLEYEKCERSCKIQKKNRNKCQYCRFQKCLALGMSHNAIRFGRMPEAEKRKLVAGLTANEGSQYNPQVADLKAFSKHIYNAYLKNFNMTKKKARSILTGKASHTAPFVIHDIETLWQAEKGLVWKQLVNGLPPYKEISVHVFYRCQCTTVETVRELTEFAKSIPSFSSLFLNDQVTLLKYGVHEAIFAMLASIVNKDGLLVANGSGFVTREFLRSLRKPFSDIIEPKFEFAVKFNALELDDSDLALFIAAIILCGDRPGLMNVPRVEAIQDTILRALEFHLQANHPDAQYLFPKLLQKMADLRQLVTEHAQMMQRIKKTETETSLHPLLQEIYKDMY
# UniProt Q96RI1: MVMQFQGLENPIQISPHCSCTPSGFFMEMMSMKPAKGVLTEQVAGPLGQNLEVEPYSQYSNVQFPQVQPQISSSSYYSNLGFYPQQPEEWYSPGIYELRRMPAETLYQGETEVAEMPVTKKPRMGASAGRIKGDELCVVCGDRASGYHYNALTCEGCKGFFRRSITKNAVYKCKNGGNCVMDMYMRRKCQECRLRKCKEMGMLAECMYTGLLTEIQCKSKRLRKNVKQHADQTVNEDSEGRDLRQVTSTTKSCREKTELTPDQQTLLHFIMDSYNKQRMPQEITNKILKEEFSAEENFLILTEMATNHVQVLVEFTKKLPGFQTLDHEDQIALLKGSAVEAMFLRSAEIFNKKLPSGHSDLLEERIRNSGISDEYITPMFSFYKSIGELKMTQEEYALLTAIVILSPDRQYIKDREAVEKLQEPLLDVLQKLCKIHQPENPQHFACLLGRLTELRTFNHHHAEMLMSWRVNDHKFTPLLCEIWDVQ
# The shares of active, inactive and inconclusive entries below differ from those in the screen. For some assays here: Where the call is inconclusive, the potency comes from a doubtful curve fit. The source holds several records for some structures; these can differ, active in one and inactive in another. Activity calls are given as the source filed them. Rule for the calls: active = hit-call score of the fitted dose curve at least 0.9, where 1 is the maximum; inconclusive = response in the unintended direction; inactive = score below 0.9.
# Assays:
# [1] = ATG_M_19_TRANS: Attagene TRANS-FACTORIAL HepG2 Assay for M19 Transcription Factor (Internal Marker) (AID 2282974); conditions: HepG2 Attagene TRANS-FACTORIAL M19 internal marker reporter
# In short: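 After transfection of HepG2 with GAL4-UAS-driven reporter constructs, cells are dosed for 24 h. Total RNA is reverse-transcribed, reporter sequences PCR-amplified and labelled, then HpaI-digested and sized by capillary electrophoresis.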
# [2] = ATG_M_06_TRANS: Attagene TRANS-FACTORIAL HepG2 Assay for M06 Transcription Factor (Internal Marker) (AID 2282983); conditions: HepG2 Attagene TRANS M06 internal marker reporter;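 note: potency for rise in reporter mRNA above DMSO baseline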
# In short: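 Background control endpoint: reporter mRNA from transiently transfected HepG2 after 24 h dosing, detected by RT-PCR with capillary electrophoresis fluorescence. Analysed for gain versus DMSO.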
# [3] = ATG_M_32_TRANS: Attagene TRANS-FACTORIAL HepG2 Assay for M32 Transcription Factor (Internal Marker) (AID 2282984); conditions: HepG2 Attagene TRANS M32 internal marker reporter;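 for outcome: transcript level of a background control reporter unit measured by RT-PCR and capillary electrophoresis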
# In short: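 Internal-marker readout from a multiplexed transcription reporter panel. HepG2 cells were transfected with GAL4-UAS reporter units, treated 24 hours, and reporter transcript levels determined by fluorescence after RT-PCR and capillary separation.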
# [4] = target: Cellular tumor antigen p53 (Homo sapiens) (UniProt P04637); test: TOX21_p53_BLA_p2_ratio: Tox21 HCT-116 p53 Agonism Beta-lactamase Assay, Ratio, Phase 2 (AID 2283592)
# In short: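 Plated HCT116 p53-bla cells (4000/well) received compound after 5 h, then 16 h at 37C/5% CO2. CCF4-AM added, 2 h RT. Ratio of 460 to 530 nm emission taken as the p53 reporter signal.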
# [5] = TOX21_p53_BLA_p5_viability: Viability Assessment in the Tox21 HCT-116 p53 Agonism Beta-lactamase Assay, Phase 5 (AID 2283600)
# In short: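 Workflow: seed 4000 cells per well, wait 5 h, add compounds (DMSO, 217-fold dilution), incubate 16 h, load CCF4-AM 2 h, add CellTiter-Glo, read luminescence after 30 min.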
# [6] = target: Cellular tumor antigen p53 (Homo sapiens) (UniProt P04637); test: TOX21_p53_BLA_p4_ratio: Tox21 HCT-116 p53 Agonism Beta-lactamase Assay, Ratio, Phase 4 (AID 2283601)
# In short: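 HCT-116 p53 beta-lactamase reporter cells (4000/well) preincubated 5 h, then compound (217-fold dilution of DMSO stock) for 16 h at 37C. CCF4-AM substrate added 2 h at room temperature; 460/530 nm emission ratio fitted upward versus DMSO.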
# [7] = ACEA_ER_AUC_viability: ACEA Biosciences xCELLigence Real-Time Cell Analysis on Estrogen Receptor Agonism for Viability (AID 2283782);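 note: hit means loss of impedance signal meaning reduced cell growth or viability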
# In short: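 Read-out: real-time electrical impedance (RT-CES) area under curve, loss of signal taken as reduced viability, normalized to DMSO baseline. T-47D cells, charcoal-stripped serum medium, compounds up to 100 uM final, continuous exposure, 80 h.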
# [8] = target: Glucocorticoid receptor (Homo sapiens) (UniProt P04150); test: ATG_GR_TRANS: Attagene TRANS-FACTORIAL HepG2 Assay for human Glucocorticoid Receptor (GR) (AID 2282978); conditions: HepG2 Attagene TRANS GR reporter, mRNA transcription;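 note: activators score as hits since higher reporter transcript over DMSO is fitted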
# In short: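 Multiplexed TRANS reporter system, HepG2; 24 h exposure; RNA → oligo(dT) RT → reporter-specific PCR → 6-FAM primer extension → HpaI cut → CE fluorescence. Gain-of-signal vs DMSO.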
# [9] = target: Oxysterols receptor LXR-beta (Homo sapiens) (UniProt P55055); test: ATG_LXRb_TRANS: Attagene TRANS-FACTORIAL HepG2 Assay for human Liver X Receptor beta (LXRb) (AID 2282981); conditions: HepG2 Attagene TRANS GAL4-LXRb reporter, mRNA
# In short: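 Multiplexed reporter assay, HepG2, 24 h dosing. Fluorescence of labelled RT-PCR products after capillary electrophoresis gives transcript level; positive fitting direction relative to DMSO.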
# [10] = target: Nuclear receptor subfamily 1 group I member 2 (Homo sapiens) (UniProt O75469); test: ATG_PXR_TRANS: Attagene TRANS-FACTORIAL HepG2 Assay for human Pregnane X Receptor (PXR) (AID 2283008)
# In short: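 HepG2 transfected (FuGene 6) with GAL4-UAS reporter units + PXR-Gal4 chimera; dosed 24 h. Total RNA → oligo(dT) RT → PCR → 6-FAM primer extension → HpaI cut → CE. Gain-of-signal vs DMSO.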
# [11] = target: Cellular tumor antigen p53 (Homo sapiens) (UniProt P04637); test: TOX21_p53_BLA_p3_ratio: Tox21 HCT-116 p53 Agonism Beta-lactamase Assay, Ratio, Phase 3 (AID 2283596)
# In short: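 Cells were seeded at 4000/well, rested 5 h at 37C, then dosed with DMSO compound solutions (217-fold dilution) for 16 h. CCF4-AM substrate was loaded for 2 h at room temperature, and the 460/530 nm emission ratio was fitted for gain of signal versus DMSO.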
# [12] = CCTE_Harrill_HTTr_CellCount_MCF7: CCTE's Cell Proliferation Assessment for the High-Throughput Transcriptomics (HTTr) Platform, Harrill Lab (AID 2284012);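 note: cells exposed to compound for six hours; intended direction is loss of nuclei count meaning fewer cells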
# In short: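 Cell count from high-content imaging of Hoechst-labeled nuclei serves as viability/growth readout. Chemicals were applied to MCF-7 cells in eight concentrations for six hours, with fitting in both directions relative to DMSO.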
# [13] = target: Peroxisome proliferator-activated receptor gamma (Homo sapiens) (UniProt P37231); test: ATG_PPARg_TRANS: Attagene TRANS-FACTORIAL HepG2 Assay for human Peroxisome Proliferator-activated Receptor-gamma (PPARg) (AID 2283007)
# In short: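 Human hepatoma HepG2, transient MRTU transfection, 24 h treatment. mRNA reporter signal by RT-PCR plus capillary electrophoresis, fluorescence detection; fitted for increase over DMSO negative control.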
# [14] = target: human Peroxisome Proliferator-activated Receptor delta (PPARd), PPARD (gene 5467) (UniProt Q03181); test: ATG_PPARd_TRANS: Attagene TRANS-FACTORIAL HepG2 Assay for human Peroxisome Proliferator-activated Receptor delta (PPARd) (AID 2283002)
# In short: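 HepG2 cells transiently transfected with GAL4-UAS multiplexed reporter units driven by exogenous chimeric NR-GAL4 proteins; 24 h compound exposure. Reporter mRNA measured by RT-PCR, 6-FAM primer extension, HpaI digestion and capillary electrophoresis; gain of signal fitted relative to DMSO.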
# [15] = target: Bile acid receptor (Homo sapiens) (UniProt Q96RI1); test: ATG_FXR_TRANS: Attagene TRANS-FACTORIAL HepG2 Assay for Farnesoid X Receptor (FXR) (AID 2282979); conditions: HepG2 Attagene TRANS FXR-GAL4 reporter transcription;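 note: hits raise reporter mRNA above DMSO so AC50 marks FXR activation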
# In short: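 Transient transfection of HepG2 with multiplexed GAL4-UAS reporter units; exogenous FXR-GAL4 chimera. Dose 24 h → TriZol RNA → oligo(dT) RT → PCR, 6-FAM primer extension, HpaI cut → CE. Gain vs DMSO.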
structure (smiles),measurement,setting,value
COP(=S)(OC)Oc1c(Cl)cc(C)cc1Cl,outcome,[1],inactive
same,AC50,[2],inconclusive: 100 µM
same,outcome,[3],inactive
same,outcome,[4],inactive
same,AC50,[5],inconclusive: 46.1 µM
same,outcome,[6],inactive
same,outcome,[7],inactive
ClCCOCCCl,outcome,[1],inactive
same,AC50,[8],inconclusive: 2.22 µM
same,outcome,[9],inactive
same,outcome,[10],inactive
same,AC50,[4],inconclusive: 46.3 µM
same,AC50,[11],inconclusive: 46.1 µM
same,outcome,[5],inactive
same,AC50,[12],inconclusive: 50 µM
CC(C)(C1CCC(O)CC1)C1CCC(O)CC1 (stereo unspecified),AC50,[1],inconclusive: 100 µM
same,AC50,[3],inconclusive: 184 µM
same,AC50,[13],inconclusive: 100 µM
same,AC50,[11],inconclusive: 85.5 µM
same,AC50,[5],inconclusive: 46.1 µM
same,AC50,[6],inconclusive: 46.1 µM
C=C(Cl)CCl,outcome,[1],inactive
same,AC50,[14],inconclusive: 100 µM
same,outcome,[6],inactive
COC(=O)c1cc(Oc2ccc(Cl)cc2Cl)ccc1[N+](=O)[O-],AC50,[1],inconclusive: 100 µM
same,AC50,[8],inconclusive: 100 µM
same,AC50,[12],inconclusive: 50 µM
OCC(c1ccc(Cl)cc1)c1ccc(Cl)cc1,AC50,[1],inconclusive: 8.29 µM
same,outcome,[15],inactive
same,AC50,[9],inconclusive: 10 µM
same,AC50,[4],active: 80.1 µM
same,AC50,[5],active: 70.4 µM
same,AC50,[6],active: 85.2 µM
same,AC50,[12],inconclusive: 50 µM
CCCCS(=O)(=O)Cl,outcome,[1],inactive
same,outcome,[15],inactive
same,AC50,[2],inconclusive: 19.8 µM
same,AC50,[13],inconclusive: 100 µM
same,AC50,[4],inconclusive: 46.1 µM
same,outcome,[5],inactive
same,AC50,[7],active: 53.1 µM
ClC1=C(Cl)[C@]2(Cl)[C@H]3[C@H]([C@H]4C=C[C@H]3C4)[C@@]1(Cl)C2(Cl)Cl,outcome,[1],inactive
same,AC50,[9],inconclusive: 26.4 µM
same,AC50,[14],inconclusive: 19.8 µM
same,AC50,[11],inconclusive: 46.1 µM
same,outcome,[5],inactive
CCCCCCCCc1ccc(O)cc1,AC50,[1],inconclusive: 100 µM
same,outcome,[9],inactive
same,AC50,[2],inconclusive: 0.019 µM
same,AC50,[13],inconclusive: 100 µM
same,outcome,[11],inactive
same,AC50,[7],active: 24.4 µM
CCNCC,outcome,[1],inactive
same,AC50,[8],inconclusive: 99.5 µM
same,AC50,[3],inconclusive: 99.5 µM
same,AC50,[14],inconclusive: 99.5 µM
same,AC50,[10],inconclusive: 99.5 µM

# Some of the entries so far, with bars between the fields:
structure (smiles) | measurement | setting | value
CC(C)(C1CCC(O)CC1)C1CCC(O)CC1 (stereo unspecified) | AC50 | [6] | inconclusive: 46.1 µM
COC(=O)c1cc(Oc2ccc(Cl)cc2Cl)ccc1[N+](=O)[O-] | AC50 | [12] | inconclusive: 50 µM
OCC(c1ccc(Cl)cc1)c1ccc(Cl)cc1 | outcome | [15] | inactive
ClC1=C(Cl)[C@]2(Cl)[C@H]3[C@H]([C@H]4C=C[C@H]3C4)[C@@]1(Cl)C2(Cl)Cl | AC50 | [9] | inconclusive: 26.4 µM
CCNCC | AC50 | [14] | inconclusive: 99.5 µM
